Experimental data published in the supplement of paper PMC3334620.
Over roughly 33,000 sequences, “E-score (-0.5 to 0.5)” has its median near -0.0014; the highest 2% begin near 0.25. The list shows a part of the results.

biological target: T1, Cad1 (UniProt P24813); assay: PBM E-score (8-mer binding enrichment) (E-score (-0.5 to 0.5)); higher = stronger / more preferred TF binding; conditions: protein concentration: 100 nM; construct: GST-full length
T1 sequence: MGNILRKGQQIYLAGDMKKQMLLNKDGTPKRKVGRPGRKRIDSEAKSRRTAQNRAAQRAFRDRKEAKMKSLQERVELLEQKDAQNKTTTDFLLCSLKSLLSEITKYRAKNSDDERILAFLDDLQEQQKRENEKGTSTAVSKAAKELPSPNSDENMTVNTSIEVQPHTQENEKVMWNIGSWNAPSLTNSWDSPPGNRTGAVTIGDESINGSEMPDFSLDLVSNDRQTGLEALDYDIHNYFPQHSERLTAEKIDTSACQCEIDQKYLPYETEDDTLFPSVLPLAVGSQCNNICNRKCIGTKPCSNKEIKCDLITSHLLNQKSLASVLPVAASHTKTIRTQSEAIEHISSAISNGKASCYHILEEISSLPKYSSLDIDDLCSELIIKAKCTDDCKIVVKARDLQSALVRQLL
How it was run: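 Detection of bound protein used fluorescent anti-GST, with scans normalised by masliner. The proteins were GST-tagged yeast transcription factors applied at about 100-200 nM to universal all-10-mer Agilent arrays made double-stranded by primer extension. Each ungapped eight-base word, pooled with its reverse complement, was scored with an E-score from the Universal PBM Analysis Suite.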

| Sequence | PBM E-score |
| --- | --- |
| GCCCTCGC | -0.101 |
| GTGTATAA | -0.133 |
| CCCGGGCC | -0.265 |
| AGCCTCCC | -0.263 |
| ATACACTA | 0.205 |
| ACGCCGAC | 0.0575 |
| AAATATCC | 0.154 |
| TCGGTTAA | 0.129 |
| CGGGTGGA | -0.0447 |
| CTGCGAGC | 0.116 |
| ATGGCTTC | -0.0365 |
| ACTGAGAC | -0.0406 |
| ATTACGCC | -0.0172 |
| CTCGATTC | 0.0642 |
| GCAAGTAA | -0.0983 |
| AACCGAAT | 0.1 |
| ATCTGTCA | 0.185 |
| AAATTGGT | 0.11 |
| ATTTCCGG | 0.264 |
| ATCTTCAG | 0.184 |
| GTGTGGCA | -0.0898 |
| CACCTTGG | -0.126 |
| CTGCCGGA | 0.0447 |
| ACGTGGGC | -0.0316 |
| GCAGGCTA | -0.217 |

| Sequence | PBM E-score |
| --- | --- |
| ATGGACTA | 0.0818 |
| CGTATGAA | 0.0582 |
| CTTCTTTA | 0.13 |
| CACACGAA | 0.111 |
| AAACCCGC | 0.179 |
| ATTCCAAT | 0.0221 |
| AAGGCGCG | 0.0162 |
| ATGCAATC | -0.0749 |
| CAGGCCGC | -0.032 |
| GTAAATTA | -0.053 |
| ACCTTCAG | 0.00749 |
| TGGTTACA | -0.0113 |
| ATACCTTC | -0.116 |
| ACCAGAAG | -0.184 |
| ACAGACTA | -0.0715 |
| CCGGCTCA | 0.00399 |
| ATGCCGAG | 0.00416 |
| TACCCACA | 0.00034 |
| GAAACAGA | 0.0699 |
| ATGCCGGA | 0.0312 |
| GGCCGGTA | -0.0294 |
| TAAGGGTA | -0.19 |
| CAATAACC | 0.18 |
| TCTCCCCA | -0.26 |
| ACCCTTCA | -0.0682 |

Given comma-delimited: entries from further up
Sequence,PBM E-score
AAGGCGCG,0.0162
ATGCAATC,-0.0749
CAGGCCGC,-0.032
GTAAATTA,-0.053
ACCTTCAG,0.00749
TGGTTACA,-0.0113
ATACCTTC,-0.116

More results:

| Sequence | PBM E-score |
| --- | --- |
| CCTTATAG | -0.219 |
| TAGATTGA | 0.00494 |
| ACTAAGCC | 0.199 |
| CCATATCG | 0.0116 |
| CTACCTAC | 0.105 |
| CACAGGTA | -0.0477 |
| AGAAATTA | 0.296 |
| AGAGGAGA | -0.305 |
| CAACGAAC | 0.114 |
| AACTACTT | -0.106 |
| CAAGCGGG | -0.183 |
| GGGGTCAC | -0.266 |
| GTGGAACA | 0.125 |
| CTGCCGGC | -0.00247 |
| CGACAGAG | -0.138 |
| AAGACTGG | -0.046 |
| CGAGTCCG | 0.0505 |
| TACTAAGA | 0.214 |
| AGATAGGC | -0.124 |
| CCTCGTCG | 0.0394 |
| CAGGGGTC | -0.245 |
| TGGAGCCA | -0.106 |
| ACCACAGC | 0.0415 |
| CTGCGGAC | 0.0703 |
| CTAGTTAA | 0.045 |

| Sequence | PBM E-score |
| --- | --- |
| AACTCGGC | 0.125 |
| GGGTCCAC | -0.396 |
| ACTGCAGA | -0.0799 |
| CTGGAAAA | 0.105 |
| CCCCCGGG | -0.353 |
| TCGTGACA | -0.119 |
| CATACCTA | -0.141 |
| ACGTGCCG | 0.0297 |
| CAATAGAG | -0.28 |
| AGCACGGG | -0.039 |
| GAGGTGGA | -0.321 |
| GCCGAGGA | 0.106 |
| ACCGAAGG | -0.00102 |
| CGCGTAGA | 0.126 |
| AGAAGTAT | 0.116 |
| GGAGCAGA | -0.126 |
| AGAAGGTC | -0.0648 |
| CTTCATGC | -0.089 |
| AGCGTCAC | -0.0342 |
| CTTGACCC | -0.212 |
| AGATCAGG | -0.128 |
| GTTCTATA | 0.131 |
| TAAAGTAA | -0.126 |
| ACCTCAAG | -0.112 |
| CATTGAAC | 0.037 |

| Sequence | PBM E-score |
| --- | --- |
| AATGACAT | 0.157 |
| CCCATAGA | -0.262 |
| CGCTAAAA | 0.0433 |
| GTGCGCAC | 0.227 |
| ACATCGGT | -0.151 |
| AAGAGCAA | -0.182 |
| GAAAGTAA | 0.0461 |
| AAGTGACG | 0.101 |
| ACCGCCAG | 0.0409 |
| CCAGCATA | 0.0601 |
| ACACTTCA | 0.114 |
| CTTCAGGA | -0.128 |
| AGTCAAAA | -0.104 |
| AGAGCTCG | 0.0148 |
| AGGCTTGC | -0.138 |
| GTCTCGGA | 0.00393 |
| CCTGATAG | -0.124 |
| ATCGGTCC | -0.165 |
| TGGGATAA | 0.0101 |
| ACTTTACC | 0.24 |
| TCCTAGGA | -0.106 |
| GATATTCC | 0.0127 |
| GGCGCGTA | -0.0178 |
| CCCCCCTA | -0.331 |
| CGCATATA | -0.0685 |

Quoted at random: two records from the list.

| Sequence | PBM E-score |
| --- | --- |
| TCCTAGGA | -0.106 |
| AGGCTTGC | -0.138 |

Later entries:

| Sequence | PBM E-score |
| --- | --- |
| TATGCACA | 0.0954 |
| ATGATTCC | 0.13 |
| GAGTCGAA | -0.0226 |
| CCGCTCTA | -0.0465 |
| AGGAGGAC | -0.365 |
| CATAGTTC | -0.00622 |
| CGAACACC | 0.0436 |
| CTGGGGGA | -0.306 |
| CAATGGGG | -0.253 |
| ATATAATC | 0.0826 |
| AACCACGG | -0.142 |
| GCATGGCC | -0.149 |
| TCGTACGA | 0.0272 |
| GCCTTCCC | -0.289 |
| CGGCATTA | 0.117 |
| ATTGGGCC | 0.146 |
| CCCAGCGG | -0.264 |
| ACAGTCCG | -0.133 |
| ACCCTATG | -0.0459 |
| CGTATTAA | 0.0596 |
| GCGGGGCC | -0.198 |
| CAGCCCAC | -0.0145 |
| ACTCTCGA | 0.141 |
| AGCTAGGG | 0.0124 |
| CTTCTTAC | 0.0798 |

| Sequence | PBM E-score |
| --- | --- |
| AAAGCTGT | -0.011 |
| GCCAATAA | 0.133 |
| ACTAAGTC | 0.103 |
| TATAAAGA | -0.0447 |
| CCCGGCCC | -0.27 |
| ACTATCGC | 0.218 |
| AACCTACC | -0.252 |
| AACCATCC | 0.0325 |
| AATACGAG | 0.1 |
| AATGAACG | 0.0563 |
| CAGGCTCC | -0.0824 |
| AACAAAAT | 0.123 |
| AGGGCGCC | -0.1 |
| GATATAGA | 0.106 |
| CATACGGC | 0.0544 |
| AAACCGTA | 0.0364 |
| AATCATCC | -0.0051 |
| ATTCGCTA | -0.172 |
| CGATAGCA | -0.147 |
| ATGATCTA | 0.124 |
| CTCATCAA | -0.0643 |
| ACGGTTGG | -0.114 |
